These are yes or no findings as the source states them, for the method shown. A result given as binding can be weak or reduced; the word gives no strength. For some of these results: In cells and extracts the contact can be indirect. For some of these results: Where a sequence is shown, tags or fusion partners need not be part of it.
Assays:
[1] = target: IL-2 receptor common gamma chain (cγc), full length (1-369) (human) (UniProt P31785); assay: co-immunoprecipitation from 293-T lysates
[2] = target: IL-2 receptor common gamma chain (cγc), full length (1-369) (human) (UniProt P31785); assay: co-immunoprecipitation with anti myc from 293-T lysate, Western blot with anti cγc
[3] = target: IL-2 receptor common gamma chain (cγc), full length (1-369) (human) (UniProt P31785); assay: as printed: two-hybrid method (Example 2 describes co-immunoprecipitation)
[4] = target: IL-2 receptor common gamma chain (cγc), full length (1-369) (human) (UniProt P31785); assay: yeast two-hybrid, NIK deletion mutant as bait, cγc as prey, beta-gal assay
[5] = target: IL-2 receptor common gamma chain (cγc), full length (1-369) (human) (UniProt P31785); assay: co-immunoprecipitation with anti cγc from 293T cells, Western blot with anti His

The chains behind the UniProt entries cited, without tags or fusion partners. Where a name states a change or a piece, a line headed by the entry shows the natural chain unless it says otherwise.
UniProt P31785: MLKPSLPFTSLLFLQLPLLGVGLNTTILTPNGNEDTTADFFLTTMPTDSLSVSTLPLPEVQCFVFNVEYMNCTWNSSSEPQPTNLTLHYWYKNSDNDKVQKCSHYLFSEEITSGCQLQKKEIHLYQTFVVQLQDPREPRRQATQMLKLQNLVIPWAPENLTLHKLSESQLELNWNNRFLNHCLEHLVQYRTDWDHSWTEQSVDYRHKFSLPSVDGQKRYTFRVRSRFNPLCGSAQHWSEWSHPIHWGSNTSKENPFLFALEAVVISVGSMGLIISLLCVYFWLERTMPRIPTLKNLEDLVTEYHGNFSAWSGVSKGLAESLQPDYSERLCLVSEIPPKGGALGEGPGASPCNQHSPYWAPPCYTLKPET

B1: NIK aly mutant (NIK-G860R), myc tagged (pcS3MTNIKaly) (enzyme, human, UniProt Q99558 1-947, looked up, not shown: small tags and cut ends)
chain: MAVMEMACPGAPGSAVGQQKELPKAKEKTPPLGKKQSSVYKLEAVEKSPVFCGKWEILNDVITKGTAKEGSEAGPAAISIIAQAECENSQEFSPTFSERIFIAGSKQYSQSESLDQIPNNVAHATEGKMARVCWKGKRRSKARKKRKKKSSKSLAHAGVALAKPLPRTPEQESCTIPVQEDESPLGAPYVRNTPQFTKPLKEPGLGQLCFKQLGEGLRPALPRSELHKLISPLQCLNHVWKLHHPQDGGPLPLPTHPFPYSRLPHPFPFHPLQPWKPHPLESFLGKLACVDSQKPLPDPHLSKLACVDSPKPLPGPHLEPSCLSRGAHEKFSVEEYLVHALQGSVSSGQAHSLTSLAKTWAARGSRSREPSPKTEDNEGVLLTEKLKPVDYEYREEVHWATHQLRLGRGSFGEVHRMEDKQTGFQCAVKKVRLEVFRAEELMACAGLTSPRIVPLYGAVREGPWVNIFMELLEGGSLGQLVKEQGCLPEDRALYYLGQALEGLEYLHSRRILHGDVKADNVLLSSDGSHAALCDFGHAVCLQPDGLGKSLLTGDYIPGTETHMAPEVVLGRSCDAKVDVWSSCCMMLHMLNGCHPWTQFFRGPLCLKIASEPPPVREIPPSCAPLTAQAIQEGLRKEPIHRVSAAELGGKVNRALQQVGGLKSPWRGEYKEPRHPPPNQANYHQTLHAQPRELSPRAPGPRPAEETTGRAPKLQPPLPPEPPEPNKSPPLTLSKEESGMWEPLPLSSLEPAPARNPSSPERKATVPEQELQQLEIELFLNSLSQPFSLEEQEQILSCLSIDSLSLSDDSEKNPSKASQSSRDTLSSGVHSWSSQAEARSSSWNMVLARGRPTDTPSYFNRVKVQIQSLNGEHLHIREFHRVKVGDIATGISSQIPAAAFSLVTKDGQPVRYDMEVPDSGIDLQCTLAPDGSFAWSWRVKHGQLENRP
B1 was tested, and the binding [1] was “binds”, the binding [2] was “binds” and the binding [3] was “binds”.

B2: NIK 1-820 (enzyme, human, UniProt Q99558 1-820, looked up)
chain: MAVMEMACPGAPGSAVGQQKELPKAKEKTPPLGKKQSSVYKLEAVEKSPVFCGKWEILNDVITKGTAKEGSEAGPAAISIIAQAECENSQEFSPTFSERIFIAGSKQYSQSESLDQIPNNVAHATEGKMARVCWKGKRRSKARKKRKKKSSKSLAHAGVALAKPLPRTPEQESCTIPVQEDESPLGAPYVRNTPQFTKPLKEPGLGQLCFKQLGEGLRPALPRSELHKLISPLQCLNHVWKLHHPQDGGPLPLPTHPFPYSRLPHPFPFHPLQPWKPHPLESFLGKLACVDSQKPLPDPHLSKLACVDSPKPLPGPHLEPSCLSRGAHEKFSVEEYLVHALQGSVSSGQAHSLTSLAKTWAARGSRSREPSPKTEDNEGVLLTEKLKPVDYEYREEVHWATHQLRLGRGSFGEVHRMEDKQTGFQCAVKKVRLEVFRAEELMACAGLTSPRIVPLYGAVREGPWVNIFMELLEGGSLGQLVKEQGCLPEDRALYYLGQALEGLEYLHSRRILHGDVKADNVLLSSDGSHAALCDFGHAVCLQPDGLGKSLLTGDYIPGTETHMAPEVVLGRSCDAKVDVWSSCCMMLHMLNGCHPWTQFFRGPLCLKIASEPPPVREIPPSCAPLTAQAIQEGLRKEPIHRVSAAELGGKVNRALQQVGGLKSPWRGEYKEPRHPPPNQANYHQTLHAQPRELSPRAPGPRPAEETTGRAPKLQPPLPPEPPEPNKSPPLTLSKEESGMWEPLPLSSLEPAPARNPSSPERKATVPEQELQQLEIELFLNSLSQPFSLEEQEQILSCLSIDSLSLSDDSEKNPSKASQSS
With B2 the binding [4] was “binds”.

B3: NIK 1-821, His tagged (enzyme, human, UniProt Q99558 1-821, looked up)
chain: MAVMEMACPGAPGSAVGQQKELPKAKEKTPPLGKKQSSVYKLEAVEKSPVFCGKWEILNDVITKGTAKEGSEAGPAAISIIAQAECENSQEFSPTFSERIFIAGSKQYSQSESLDQIPNNVAHATEGKMARVCWKGKRRSKARKKRKKKSSKSLAHAGVALAKPLPRTPEQESCTIPVQEDESPLGAPYVRNTPQFTKPLKEPGLGQLCFKQLGEGLRPALPRSELHKLISPLQCLNHVWKLHHPQDGGPLPLPTHPFPYSRLPHPFPFHPLQPWKPHPLESFLGKLACVDSQKPLPDPHLSKLACVDSPKPLPGPHLEPSCLSRGAHEKFSVEEYLVHALQGSVSSGQAHSLTSLAKTWAARGSRSREPSPKTEDNEGVLLTEKLKPVDYEYREEVHWATHQLRLGRGSFGEVHRMEDKQTGFQCAVKKVRLEVFRAEELMACAGLTSPRIVPLYGAVREGPWVNIFMELLEGGSLGQLVKEQGCLPEDRALYYLGQALEGLEYLHSRRILHGDVKADNVLLSSDGSHAALCDFGHAVCLQPDGLGKSLLTGDYIPGTETHMAPEVVLGRSCDAKVDVWSSCCMMLHMLNGCHPWTQFFRGPLCLKIASEPPPVREIPPSCAPLTAQAIQEGLRKEPIHRVSAAELGGKVNRALQQVGGLKSPWRGEYKEPRHPPPNQANYHQTLHAQPRELSPRAPGPRPAEETTGRAPKLQPPLPPEPPEPNKSPPLTLSKEESGMWEPLPLSSLEPAPARNPSSPERKATVPEQELQQLEIELFLNSLSQPFSLEEQEQILSCLSIDSLSLSDDSEKNPSKASQSSR
B3 was tested, and the binding [5] was “binds”.

B4: NIK 1-771, His tagged (enzyme, human, UniProt Q99558 1-771, looked up)
chain: MAVMEMACPGAPGSAVGQQKELPKAKEKTPPLGKKQSSVYKLEAVEKSPVFCGKWEILNDVITKGTAKEGSEAGPAAISIIAQAECENSQEFSPTFSERIFIAGSKQYSQSESLDQIPNNVAHATEGKMARVCWKGKRRSKARKKRKKKSSKSLAHAGVALAKPLPRTPEQESCTIPVQEDESPLGAPYVRNTPQFTKPLKEPGLGQLCFKQLGEGLRPALPRSELHKLISPLQCLNHVWKLHHPQDGGPLPLPTHPFPYSRLPHPFPFHPLQPWKPHPLESFLGKLACVDSQKPLPDPHLSKLACVDSPKPLPGPHLEPSCLSRGAHEKFSVEEYLVHALQGSVSSGQAHSLTSLAKTWAARGSRSREPSPKTEDNEGVLLTEKLKPVDYEYREEVHWATHQLRLGRGSFGEVHRMEDKQTGFQCAVKKVRLEVFRAEELMACAGLTSPRIVPLYGAVREGPWVNIFMELLEGGSLGQLVKEQGCLPEDRALYYLGQALEGLEYLHSRRILHGDVKADNVLLSSDGSHAALCDFGHAVCLQPDGLGKSLLTGDYIPGTETHMAPEVVLGRSCDAKVDVWSSCCMMLHMLNGCHPWTQFFRGPLCLKIASEPPPVREIPPSCAPLTAQAIQEGLRKEPIHRVSAAELGGKVNRALQQVGGLKSPWRGEYKEPRHPPPNQANYHQTLHAQPRELSPRAPGPRPAEETTGRAPKLQPPLPPEPPEPNKSPPLTLSKEESGMWEPLPLSSLEPAPARNPSSPERKATVPEQELQ
In the case of B4, the binding [5] is reported as “binds”.

B5: NIK 1-720, His tagged (enzyme, human, UniProt Q99558 1-720, looked up)
chain: MAVMEMACPGAPGSAVGQQKELPKAKEKTPPLGKKQSSVYKLEAVEKSPVFCGKWEILNDVITKGTAKEGSEAGPAAISIIAQAECENSQEFSPTFSERIFIAGSKQYSQSESLDQIPNNVAHATEGKMARVCWKGKRRSKARKKRKKKSSKSLAHAGVALAKPLPRTPEQESCTIPVQEDESPLGAPYVRNTPQFTKPLKEPGLGQLCFKQLGEGLRPALPRSELHKLISPLQCLNHVWKLHHPQDGGPLPLPTHPFPYSRLPHPFPFHPLQPWKPHPLESFLGKLACVDSQKPLPDPHLSKLACVDSPKPLPGPHLEPSCLSRGAHEKFSVEEYLVHALQGSVSSGQAHSLTSLAKTWAARGSRSREPSPKTEDNEGVLLTEKLKPVDYEYREEVHWATHQLRLGRGSFGEVHRMEDKQTGFQCAVKKVRLEVFRAEELMACAGLTSPRIVPLYGAVREGPWVNIFMELLEGGSLGQLVKEQGCLPEDRALYYLGQALEGLEYLHSRRILHGDVKADNVLLSSDGSHAALCDFGHAVCLQPDGLGKSLLTGDYIPGTETHMAPEVVLGRSCDAKVDVWSSCCMMLHMLNGCHPWTQFFRGPLCLKIASEPPPVREIPPSCAPLTAQAIQEGLRKEPIHRVSAAELGGKVNRALQQVGGLKSPWRGEYKEPRHPPPNQANYHQTLHAQPRELSPRAPGPRPAEETTGRAPKLQPPLPPE
In the case of B5, the binding [5] is reported as “binds”.
